Laboratory results as given in PMC7445403.
Results are given in words; binding and its absence hold for the method and conditions named. Binding seen in cells or lysates may run through a third protein. Some entries that bind do so weakly or less than the wild type.

By UniProt entry, the sequences of proteins in these tests, tags left out.
UniProt P25490: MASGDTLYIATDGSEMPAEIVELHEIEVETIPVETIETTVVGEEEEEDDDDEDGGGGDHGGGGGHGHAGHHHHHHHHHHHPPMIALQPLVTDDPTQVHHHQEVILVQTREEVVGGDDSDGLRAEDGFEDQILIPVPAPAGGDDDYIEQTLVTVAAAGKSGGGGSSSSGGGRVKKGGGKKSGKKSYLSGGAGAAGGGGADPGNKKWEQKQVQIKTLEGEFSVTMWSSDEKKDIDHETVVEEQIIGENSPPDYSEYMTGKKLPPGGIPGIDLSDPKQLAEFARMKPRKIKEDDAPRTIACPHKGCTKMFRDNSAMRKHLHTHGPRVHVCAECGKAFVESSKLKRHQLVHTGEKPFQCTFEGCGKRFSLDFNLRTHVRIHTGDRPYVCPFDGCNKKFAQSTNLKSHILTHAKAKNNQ
UniProt Q13547: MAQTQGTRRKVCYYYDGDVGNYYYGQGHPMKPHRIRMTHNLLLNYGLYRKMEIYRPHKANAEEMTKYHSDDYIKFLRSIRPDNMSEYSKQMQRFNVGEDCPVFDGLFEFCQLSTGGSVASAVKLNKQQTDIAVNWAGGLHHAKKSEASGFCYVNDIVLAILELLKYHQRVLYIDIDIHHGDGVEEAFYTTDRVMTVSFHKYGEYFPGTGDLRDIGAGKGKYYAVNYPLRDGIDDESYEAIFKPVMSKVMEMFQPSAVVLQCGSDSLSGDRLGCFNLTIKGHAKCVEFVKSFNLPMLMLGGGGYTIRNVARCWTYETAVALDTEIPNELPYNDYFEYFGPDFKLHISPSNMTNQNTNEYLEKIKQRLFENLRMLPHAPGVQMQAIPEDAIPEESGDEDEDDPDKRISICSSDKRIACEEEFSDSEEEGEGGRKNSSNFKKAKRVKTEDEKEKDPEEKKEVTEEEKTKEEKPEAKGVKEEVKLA

Biological target: Yin Yang 1 (YY1) (human (endogenous in HCC cells)) (UniProt P25490)
Experiment: co-IP; 1-2 ug YY1 antibody added to 300 uL cell lysate for 30 minutes at 4°C, beads at 4°C overnight, washed three times with PBS, analysed by Western blotting; endogenous proteins of HCC cells

HDAC1 (from UniProt Q13547 1-482) was tested, and the binding was “binds”.
